Experimental data taken from paper doi:10.1101/757856.
No constants are given. Whether binding was seen depends on the method and setting. For part of these data: Binding seen in cells or lysates may run through a third protein. Some results given as binding are weak or reduced against the parent protein; the word gives no strength.

By UniProt entry, the sequences of proteins in these tests, tags left out. Where a name states a change or a piece, a line headed by the entry shows the natural chain unless it says otherwise. Chains listed by the source or under a name are the forms on record and can include a tag or linker. Residues count along the entry.
Neurofibromin DEF fragment (1541-2818, purified) (P21359, residues 1562-2839): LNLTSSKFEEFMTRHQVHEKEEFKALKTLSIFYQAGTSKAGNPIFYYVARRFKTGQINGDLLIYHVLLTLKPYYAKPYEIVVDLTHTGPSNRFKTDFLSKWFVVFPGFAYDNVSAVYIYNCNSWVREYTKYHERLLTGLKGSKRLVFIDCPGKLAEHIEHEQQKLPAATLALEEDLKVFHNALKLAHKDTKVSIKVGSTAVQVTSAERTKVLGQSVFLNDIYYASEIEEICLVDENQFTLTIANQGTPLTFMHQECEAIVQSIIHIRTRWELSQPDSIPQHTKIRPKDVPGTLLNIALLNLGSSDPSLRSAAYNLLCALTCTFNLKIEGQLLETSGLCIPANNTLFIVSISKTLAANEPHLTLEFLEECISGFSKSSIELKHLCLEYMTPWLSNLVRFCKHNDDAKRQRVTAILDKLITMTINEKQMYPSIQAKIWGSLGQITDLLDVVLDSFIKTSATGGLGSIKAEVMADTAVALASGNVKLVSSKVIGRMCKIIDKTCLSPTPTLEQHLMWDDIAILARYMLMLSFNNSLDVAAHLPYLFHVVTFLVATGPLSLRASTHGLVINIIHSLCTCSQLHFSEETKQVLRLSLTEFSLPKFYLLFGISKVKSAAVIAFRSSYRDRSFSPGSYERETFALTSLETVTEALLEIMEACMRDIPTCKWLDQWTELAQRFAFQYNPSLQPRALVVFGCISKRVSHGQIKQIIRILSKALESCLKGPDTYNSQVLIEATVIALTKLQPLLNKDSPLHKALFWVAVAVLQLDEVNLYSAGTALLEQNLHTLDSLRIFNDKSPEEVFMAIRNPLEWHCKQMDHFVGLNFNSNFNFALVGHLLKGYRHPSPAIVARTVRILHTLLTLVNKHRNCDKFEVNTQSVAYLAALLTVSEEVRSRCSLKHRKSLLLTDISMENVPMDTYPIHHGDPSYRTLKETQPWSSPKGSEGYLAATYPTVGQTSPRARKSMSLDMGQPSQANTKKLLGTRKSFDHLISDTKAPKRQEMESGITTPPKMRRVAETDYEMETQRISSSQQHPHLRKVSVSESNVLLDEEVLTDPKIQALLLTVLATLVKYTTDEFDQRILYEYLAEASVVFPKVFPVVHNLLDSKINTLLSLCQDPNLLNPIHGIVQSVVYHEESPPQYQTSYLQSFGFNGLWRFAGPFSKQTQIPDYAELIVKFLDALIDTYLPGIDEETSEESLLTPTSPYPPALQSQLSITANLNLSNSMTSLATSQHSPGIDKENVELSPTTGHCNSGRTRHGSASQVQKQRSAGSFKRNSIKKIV
full-length Neurofibromin, epitope-tagged (FLAG or V5), expressed in HEK293T cells (P21359-2, form named): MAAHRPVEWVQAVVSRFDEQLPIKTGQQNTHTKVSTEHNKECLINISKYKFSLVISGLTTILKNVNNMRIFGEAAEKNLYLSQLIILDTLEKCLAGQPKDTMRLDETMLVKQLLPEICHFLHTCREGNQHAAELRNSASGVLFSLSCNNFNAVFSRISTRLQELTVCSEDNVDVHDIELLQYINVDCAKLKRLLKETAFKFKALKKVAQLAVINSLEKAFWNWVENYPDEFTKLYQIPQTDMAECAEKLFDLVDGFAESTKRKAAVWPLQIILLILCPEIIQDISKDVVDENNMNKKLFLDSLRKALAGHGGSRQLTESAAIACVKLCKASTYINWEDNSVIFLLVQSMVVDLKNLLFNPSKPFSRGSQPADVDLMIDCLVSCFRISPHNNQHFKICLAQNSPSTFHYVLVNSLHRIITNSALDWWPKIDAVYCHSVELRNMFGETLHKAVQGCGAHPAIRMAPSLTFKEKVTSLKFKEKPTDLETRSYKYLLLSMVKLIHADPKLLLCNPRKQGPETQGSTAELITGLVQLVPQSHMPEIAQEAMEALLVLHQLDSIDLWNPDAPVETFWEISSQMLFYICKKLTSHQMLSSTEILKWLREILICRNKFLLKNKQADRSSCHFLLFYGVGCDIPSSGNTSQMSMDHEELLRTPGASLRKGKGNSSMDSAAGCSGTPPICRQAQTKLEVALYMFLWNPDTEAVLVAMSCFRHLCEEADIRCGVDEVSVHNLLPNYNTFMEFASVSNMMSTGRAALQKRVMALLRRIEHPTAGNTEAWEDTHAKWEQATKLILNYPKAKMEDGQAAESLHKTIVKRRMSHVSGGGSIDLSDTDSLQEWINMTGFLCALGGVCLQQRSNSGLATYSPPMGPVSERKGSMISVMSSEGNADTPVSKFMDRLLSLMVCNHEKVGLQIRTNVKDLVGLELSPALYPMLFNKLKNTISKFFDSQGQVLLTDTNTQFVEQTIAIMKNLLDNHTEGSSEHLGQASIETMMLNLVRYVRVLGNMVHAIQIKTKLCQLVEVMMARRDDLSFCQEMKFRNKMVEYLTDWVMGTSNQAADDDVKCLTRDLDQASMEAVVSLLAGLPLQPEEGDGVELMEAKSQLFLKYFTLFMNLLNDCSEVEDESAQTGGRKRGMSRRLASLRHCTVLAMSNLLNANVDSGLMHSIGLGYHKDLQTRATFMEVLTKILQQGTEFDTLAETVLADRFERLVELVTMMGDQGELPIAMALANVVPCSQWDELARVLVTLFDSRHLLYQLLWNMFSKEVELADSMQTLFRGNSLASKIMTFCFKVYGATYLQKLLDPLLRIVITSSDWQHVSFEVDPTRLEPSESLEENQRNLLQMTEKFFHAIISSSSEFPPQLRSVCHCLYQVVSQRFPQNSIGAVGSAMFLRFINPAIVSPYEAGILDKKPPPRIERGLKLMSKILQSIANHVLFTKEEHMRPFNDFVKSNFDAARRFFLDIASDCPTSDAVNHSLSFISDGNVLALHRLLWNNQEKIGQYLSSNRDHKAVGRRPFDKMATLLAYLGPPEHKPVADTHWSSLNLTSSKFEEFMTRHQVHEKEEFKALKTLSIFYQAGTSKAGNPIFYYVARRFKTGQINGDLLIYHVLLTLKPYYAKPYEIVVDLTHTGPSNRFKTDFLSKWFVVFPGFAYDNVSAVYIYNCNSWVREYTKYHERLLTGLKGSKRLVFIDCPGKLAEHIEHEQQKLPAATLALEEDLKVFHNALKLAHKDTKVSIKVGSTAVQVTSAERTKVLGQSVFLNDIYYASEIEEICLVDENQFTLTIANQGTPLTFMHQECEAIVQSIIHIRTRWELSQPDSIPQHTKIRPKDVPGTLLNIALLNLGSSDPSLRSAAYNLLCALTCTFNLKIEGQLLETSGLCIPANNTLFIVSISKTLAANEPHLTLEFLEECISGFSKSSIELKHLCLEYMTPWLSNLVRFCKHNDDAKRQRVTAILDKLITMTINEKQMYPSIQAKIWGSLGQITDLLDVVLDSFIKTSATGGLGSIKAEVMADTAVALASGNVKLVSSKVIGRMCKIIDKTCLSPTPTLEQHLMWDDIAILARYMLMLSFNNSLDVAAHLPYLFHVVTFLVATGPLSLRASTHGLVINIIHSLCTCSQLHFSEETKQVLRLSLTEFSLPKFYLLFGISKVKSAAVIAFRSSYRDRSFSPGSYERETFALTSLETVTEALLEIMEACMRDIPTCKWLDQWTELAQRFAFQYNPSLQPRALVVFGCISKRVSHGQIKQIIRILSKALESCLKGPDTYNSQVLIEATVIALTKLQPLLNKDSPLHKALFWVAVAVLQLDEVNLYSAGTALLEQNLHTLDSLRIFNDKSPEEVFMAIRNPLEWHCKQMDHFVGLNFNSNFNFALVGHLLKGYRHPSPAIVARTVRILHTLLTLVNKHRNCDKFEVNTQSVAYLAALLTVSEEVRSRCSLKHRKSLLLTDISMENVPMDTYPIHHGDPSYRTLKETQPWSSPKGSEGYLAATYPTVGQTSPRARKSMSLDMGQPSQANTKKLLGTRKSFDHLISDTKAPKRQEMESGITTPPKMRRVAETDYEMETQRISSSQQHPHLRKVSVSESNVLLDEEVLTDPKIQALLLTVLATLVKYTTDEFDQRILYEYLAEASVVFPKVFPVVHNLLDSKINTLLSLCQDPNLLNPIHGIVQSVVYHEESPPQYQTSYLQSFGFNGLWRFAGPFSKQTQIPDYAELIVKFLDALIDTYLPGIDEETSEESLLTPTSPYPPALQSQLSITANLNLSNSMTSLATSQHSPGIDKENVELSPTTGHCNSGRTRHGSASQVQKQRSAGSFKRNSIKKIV

Tests used:
[1] = target: Neurofibromin DEF fragment (1541-2818, purified) (human) (UniProt P21359); assay: SEC-MALS
[2] = target: Neurofibromin DEF fragment (1541-2818, purified) (human) (UniProt P21359); assay: AUC
[3] = target: full-length Neurofibromin, epitope-tagged (FLAG or V5), expressed in HEK293T cells (human) (UniProt P21359); assay: co-IP

binding [1]	binding [2]	binding [3]	Substance
binds weakly	binds weakly	–	Neurofibromin DEF fragment (1541-2818, purified) (from UniProt P21359-2 1541-2818) (domain or fragment)
–	–	binds	full-length Neurofibromin, epitope-tagged (FLAG or V5), expressed in HEK293T cells (from UniProt P21359-2 1-2818)
